Patent publication US4420639A, “Aromatic compounds” (Beecham Group Limited, priority 1973, dated 1983)

How the values were obtained:
[1] = system: stomach / gastro-intestinal tract; details: some subjects, doses not greatly in excess of the therapeutic dose; cited from earlier work
rat stomach = details: same dose level (300 mg/kg/day) orally, end of 11/2 days

SMILES: COc1ccc2cc(C(C)C(=O)O)ccc2c1 (centres unmarked) [compound of formula (I)]
- irritation of the gastro-intestinal tract [1]: can cause severe irritation of the gastro-intestinal tract in some subjects
- gastric irritation (rat stomach): very severe gastric irritation
